Laboratory results published in article PMC8699642.
These are yes or no findings as the source states them, for the method shown. Binding seen in cells or lysates may run through a third protein. Some entries that bind do so weakly or less than the wild type.

Chains of the proteins cited; added tags and fusions are not shown.
UniProt Q9Z2E1: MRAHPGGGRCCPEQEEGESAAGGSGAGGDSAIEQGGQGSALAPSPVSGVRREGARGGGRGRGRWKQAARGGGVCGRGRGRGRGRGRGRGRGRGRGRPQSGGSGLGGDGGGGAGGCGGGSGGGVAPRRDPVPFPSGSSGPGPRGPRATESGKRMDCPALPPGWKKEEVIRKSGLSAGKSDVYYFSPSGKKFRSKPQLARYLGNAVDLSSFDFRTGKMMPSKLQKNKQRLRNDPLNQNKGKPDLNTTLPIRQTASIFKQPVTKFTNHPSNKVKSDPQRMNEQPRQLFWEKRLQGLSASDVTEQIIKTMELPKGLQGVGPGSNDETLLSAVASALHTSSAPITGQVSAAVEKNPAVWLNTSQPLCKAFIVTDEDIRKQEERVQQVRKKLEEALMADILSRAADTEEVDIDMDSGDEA
UniProt Q9QVP9: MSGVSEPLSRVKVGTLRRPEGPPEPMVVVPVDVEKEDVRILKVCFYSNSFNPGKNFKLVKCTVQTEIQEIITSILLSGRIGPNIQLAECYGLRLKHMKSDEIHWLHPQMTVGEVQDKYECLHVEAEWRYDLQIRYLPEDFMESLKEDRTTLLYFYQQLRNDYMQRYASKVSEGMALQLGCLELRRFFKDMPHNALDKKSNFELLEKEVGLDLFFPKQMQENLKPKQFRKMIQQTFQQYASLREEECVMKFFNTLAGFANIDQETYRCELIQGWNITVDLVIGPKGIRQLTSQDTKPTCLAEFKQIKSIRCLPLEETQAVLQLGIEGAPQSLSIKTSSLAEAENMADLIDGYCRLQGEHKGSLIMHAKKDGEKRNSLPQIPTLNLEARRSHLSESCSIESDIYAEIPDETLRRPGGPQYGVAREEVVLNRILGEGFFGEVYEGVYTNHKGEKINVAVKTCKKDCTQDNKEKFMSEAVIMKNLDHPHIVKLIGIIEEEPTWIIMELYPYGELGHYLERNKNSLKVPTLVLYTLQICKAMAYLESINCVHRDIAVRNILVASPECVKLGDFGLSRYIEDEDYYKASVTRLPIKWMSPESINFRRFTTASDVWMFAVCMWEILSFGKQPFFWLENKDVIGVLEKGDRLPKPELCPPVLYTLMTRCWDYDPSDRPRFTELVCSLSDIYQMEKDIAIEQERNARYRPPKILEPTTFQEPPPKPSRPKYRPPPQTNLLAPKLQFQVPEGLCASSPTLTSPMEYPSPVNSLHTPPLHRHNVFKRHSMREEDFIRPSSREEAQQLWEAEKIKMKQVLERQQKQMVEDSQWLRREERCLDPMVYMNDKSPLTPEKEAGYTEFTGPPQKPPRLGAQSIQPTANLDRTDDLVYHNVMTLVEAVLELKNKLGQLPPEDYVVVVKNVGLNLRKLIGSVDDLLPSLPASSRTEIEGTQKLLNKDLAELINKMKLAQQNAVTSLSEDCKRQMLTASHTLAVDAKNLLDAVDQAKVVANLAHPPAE

Columns and labels:
[1] = molecular target: MBD2-Venus (mouse Methyl-CpG-binding domain protein-2 fused to mVenus) (mouse) (UniProt Q9Z2E1); assay: FRET or BRET; FRET-FLIM in living MLO-Y4 cells triple-transfected with Src-Scarlet, Pyk2-Cer3 and MBD2-Venus; lifetimes of Pyk2-Cer3 and of MBD2-Venus measured
[2] = molecular target: MBD2-Venus (mouse Methyl-CpG-binding domain protein-2 fused to mVenus) (mouse) (UniProt Q9Z2E1); assay: FRET or BRET; FRET-FLIM in living MLO-Y4 cells co-transfected with a donor (Cer3 fusion) and one acceptor (Scarlet or Venus fusion); donor lifetime by frequency-domain FLIM, 37°C, 5% CO2; regions of interest: focal adhesions, cytoplasm, peri-nuclear region, nucleus; static culture, for Pyk2-Cer3/Src-Scarlet also after 1 hour of fluid flow on an orbital shaker

binding [1]: binds
binding [2]: binds
Substance: Pyk2-Cer3 (mouse Proline-rich kinase-2 fused to monomeric Cerulean3) (from UniProt Q9QVP9 1-1009)
